The values below come from the supplement of paper PMC3682954.

The structures appear in SMILES notation. Where a name gives a salt, the structure may show the parent alone. ± gives the standard deviation of the averaged measurements. Some of the results follow. Repeats are few or missing, and single values can be far off.

This assay concerns RAW 264.7. In words: HMGB1-induced TNF-alpha production relative to HMGB1-stimulated control; higher = more TNF-alpha secretion (less inhibition). The following applies: stimulus: HMGB1 5 ug/ml, 18 h.
The mark [1] stands for this setting: compound concentration: 1 ug/ml.

`CN1C2CCC1CC(OC(=O)C(O)c1ccccc1)C2` (centres undefined): where the note is “compound concentration: 3 uM”, the “HMGB1-induced TNF-alpha production” value came to 97.7%.

Regarding `CC(N)(Cc1ccc(O)c(O)c1)C(=O)O` (racemic) [(±)-3-(3,4-dihydroxyphenyl)-2-methyl-DL-alanine], the “HMGB1-induced TNF-alpha production” value (compound concentration: 3 uM) is 106%.

Turning to `CCN(CC)CCOCCOC(=O)C(CC)(CC)c1ccccc1`, the “HMGB1-induced TNF-alpha production” value (compound concentration: 3 uM) was found to be 70.8%.

For `CCCOc1ccc(C(=O)OCCN(CC)CC)cc1N` [Proparacaine hydrochloride], the “HMGB1-induced TNF-alpha production” value (compound concentration: 3 uM) was 108%.

Turning to `Nc1nc2c(ncn2[C@H]2C[C@H](O)[C@@H](COP(=O)(O)O)O2)c(=O)[nH]1` [2'-Deoxyguanosine 5'-monophosphate, sodium salt hydrate], under setting [1], the “HMGB1-induced TNF-alpha production” value stood at 79%.

Turning to `C=CCSCC1Nc2cc(Cl)c(S(N)(=O)=O)cc2S(=O)(=O)N1` (centres undefined) [Althiazide], the “HMGB1-induced TNF-alpha production” value (compound concentration: 3 uM) is 97.7%.

Take `C=CCSCC1Nc2cc(Cl)c(S(N)(=O)=O)cc2S(=O)(=O)N1` (centres undefined): for the setting “compound concentration: 3 uM”, the “HMGB1-induced TNF-alpha production” value is 86.3%.

With `C[S+]([O-])CCC(N)C(=O)O` (racemic) [DL-Methionine sulfoxide], the “HMGB1-induced TNF-alpha production” value under setting [1] was 77.6%.

As for `COCCc1ccc(OCC(O)CNC(C)C)cc1` (racemic) [(±)-Metoprolol (+)-tartrate], for the setting “compound concentration: 3 uM”, the “HMGB1-induced TNF-alpha production” value was determined as 104%.

As for `NC(=O)c1cccc(N)c1` [3-aminobenzamide], the “HMGB1-induced TNF-alpha production” value (compound concentration: 3 uM) came to 84.3%.

For `NC(CCC(=O)O)C(=O)O` (stereo not drawn) [D(-)-Glutamic acid], the “HMGB1-induced TNF-alpha production” value under setting [1] was determined as 61.1%.

Take `O=c1c(-c2ccc(O[C@@H]3O[C@H](CO)[C@@H](O)[C@H](O)[C@H]3O)cc2)coc2cc(O)cc(O)c12`: the “HMGB1-induced TNF-alpha production” value under setting [1] was determined as 82.3%.

Take `CNC(=N)NCCC[C@H](N)C(=O)O` [NG-Monomethyl-L-arginine acetate]: the “HMGB1-induced TNF-alpha production” value (compound concentration: 3 uM) worked out at 114%.

As for `O=C(O)c1[nH]c(=O)[nH]c(=O)c1[N+](=O)[O-]` [5-Nitroorotic acid, potassium salt monohydrate], the “HMGB1-induced TNF-alpha production” value under setting [1] worked out at 68.6%.

Turning to `c1ccc(CN(CC2=NCCN2)c2ccccc2)cc1` [Antazoline hydrochloride], the “HMGB1-induced TNF-alpha production” value (compound concentration: 3 uM) is 71%.

`c1ccc(CN(CC2=NCCN2)c2ccccc2)cc1`: the “HMGB1-induced TNF-alpha production” value (compound concentration: 3 uM) is 80.8%.

In the case of `Nc1ncnc2n[nH]c(Nc3ccc(F)cc3)c12`, the “HMGB1-induced TNF-alpha production” value (compound concentration: 3 uM) was determined as 87.6%.

`CN(C)CC/C=C1/c2ccccc2COc2ccc(CC(=O)O)cc21` [Olopatadine]: for the setting “compound concentration: 3 uM”, the “HMGB1-induced TNF-alpha production” value is 94%.

With `CN(C)CC/C=C1/c2ccccc2COc2ccc(CC(=O)O)cc21`, the “HMGB1-induced TNF-alpha production” value (compound concentration: 3 uM) worked out at 102%.

As for `CN(C)CC/C=C1/c2ccccc2COc2ccc(CC(=O)O)cc21` [Olopatadine hydrochloride], the “HMGB1-induced TNF-alpha production” value (compound concentration: 3 uM) is 101%.

Regarding `O=C(O)C1=CCCN(CCON=C(c2ccccc2)c2ccccc2)C1` [NO-711 hydrochloride], under “compound concentration: 3 uM”, the “HMGB1-induced TNF-alpha production” value amounted to 98.5%.

For the compound `Clc1ccc(N2CCN(Cc3cc4ccccn4n3)CC2)cc1`, the “HMGB1-induced TNF-alpha production” value (compound concentration: 3 uM) was determined as 103%.

For `CC(C(=O)O)c1ccc(C(=O)c2ccccc2)s1` (centres undefined) [Tiaprofenic acid], the “HMGB1-induced TNF-alpha production” value (compound concentration: 3 uM) was 61.7%.

Consider `CC(=O)N(CC(O)CN(C(C)=O)c1c(I)c(C(=O)NCC(O)CO)c(I)c(C(=O)NCC(O)CO)c1I)c1c(I)c(C(=O)NCC(O)CO)c(I)c(C(=O)NCC(O)CO)c1I` (centres undefined) [Iodixanol], for which the “HMGB1-induced TNF-alpha production” value (compound concentration: 3 uM) came to 105%.

Take `COc1c(N2CCNC(C)C2)c(F)cc2c(=O)c(C(=O)O)cn(C3CC3)c12` (centres undefined) [Gatifloxacin]: for the setting “compound concentration: 3 uM”, the “HMGB1-induced TNF-alpha production” value turned out to be 95.2 ± 7.8%.

Regarding `COc1c(N2CCNC(C)C2)c(F)cc2c(=O)c(C(=O)O)cn(C3CC3)c12` (centres undefined), the “HMGB1-induced TNF-alpha production” value (compound concentration: 3 uM) is 91.8%.

Turning to `O=C(c1ccccc1)c1ccc2n1CCC2C(=O)O` (centres undefined) [Ketorolac tromethamine], the “HMGB1-induced TNF-alpha production” value (compound concentration: 3 uM) worked out at 127%.

For the compound `O=C(c1ccccc1)c1ccc2n1CCC2C(=O)O` (centres undefined) [Ketorolac tris salt], the “HMGB1-induced TNF-alpha production” value (compound concentration: 3 uM) amounted to 103%.

With `CCOC(=O)[C@@](C)(N)Cc1ccc(O)c(O)c1` [Methyldopate hydrochloride], the “HMGB1-induced TNF-alpha production” value (compound concentration: 3 uM) was 97.6%.

As to `CCOC(=O)[C@@](C)(N)Cc1ccc(O)c(O)c1`, the “HMGB1-induced TNF-alpha production” value (compound concentration: 3 uM) is 77.5%.

For the compound `OCc1ccccc1O`, under “compound concentration: 3 uM”, the “HMGB1-induced TNF-alpha production” value is 98.5%.

As for `CNC(=O)[C@H]1O[C@@H](n2cnc3c(NCc4cccc(I)c4)nc(Cl)nc32)[C@H](O)[C@@H]1O` [Chloro-IB-MECA], the “HMGB1-induced TNF-alpha production” value (compound concentration: 3 uM) was determined as 69.7%.

Take `CN1Cc2c(N)cccc2C(c2ccccc2)C1` (centres undefined): the “HMGB1-induced TNF-alpha production” value (compound concentration: 3 uM) was found to be 88.1%.

Turning to `CN1Cc2c(N)cccc2C(c2ccccc2)C1` (centres undefined) [Nomifensine maleate], for the setting “compound concentration: 3 uM”, the “HMGB1-induced TNF-alpha production” value worked out at 90.3 ± 30%.

Consider `COc1cccc2c1C(=O)CC(c1ccccc1)O2` (centres undefined) [5-Methoxyflavanone], for which, under setting [1], the “HMGB1-induced TNF-alpha production” value is 66.4%.

With `FC(F)(F)COCC(F)(F)F`, under “compound concentration: 3 uM”, the “HMGB1-induced TNF-alpha production” value was determined as 86.7%.

With `CCN[C@@H]1C[C@H](N)[C@@H](O[C@H]2OC(CN)=CC[C@H]2N)[C@H](O)[C@H]1O[C@H]1OC[C@](C)(O)[C@H](NC)[C@H]1O`, the “HMGB1-induced TNF-alpha production” value (compound concentration: 3 uM) was 84.3%.

For `O=C1NC(=O)C(c2ccccc2)(c2ccccc2)N1` [5,5-Diphenylhydantoin], the “HMGB1-induced TNF-alpha production” value (compound concentration: 3 uM) was determined as 77.8%.

As to `O=C1NC(=O)C(c2ccccc2)(c2ccccc2)N1` [Phenytoin], where the note is “compound concentration: 3 uM”, the “HMGB1-induced TNF-alpha production” value is 95%.
